In the supplement of paper PMC5836539:
± gives the standard deviation of the averaged measurements. Most values lie within the scatter of the assay; repeated measurements hardly agree.

Protein sequences, listed by entry. Tags and fused reporters are not part of them. Lines headed by an entry give the natural chain unless they say otherwise; changes in a name come on top.
UniProt Q6NYC8: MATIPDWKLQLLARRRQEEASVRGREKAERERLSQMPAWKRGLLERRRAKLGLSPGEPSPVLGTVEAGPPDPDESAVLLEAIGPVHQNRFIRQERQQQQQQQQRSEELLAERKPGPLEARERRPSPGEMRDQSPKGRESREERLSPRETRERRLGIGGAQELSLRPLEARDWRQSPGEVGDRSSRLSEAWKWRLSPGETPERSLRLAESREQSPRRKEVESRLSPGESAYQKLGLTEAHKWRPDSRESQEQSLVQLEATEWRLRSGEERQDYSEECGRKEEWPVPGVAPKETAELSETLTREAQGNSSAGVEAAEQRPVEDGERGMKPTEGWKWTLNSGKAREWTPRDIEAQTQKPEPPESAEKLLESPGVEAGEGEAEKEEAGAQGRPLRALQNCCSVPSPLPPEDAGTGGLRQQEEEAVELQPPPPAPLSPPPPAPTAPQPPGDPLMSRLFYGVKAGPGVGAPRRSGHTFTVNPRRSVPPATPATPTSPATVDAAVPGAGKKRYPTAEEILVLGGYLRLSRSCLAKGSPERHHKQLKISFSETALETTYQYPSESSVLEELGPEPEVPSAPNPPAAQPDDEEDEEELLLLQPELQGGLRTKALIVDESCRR
UniProt Q6NZI2: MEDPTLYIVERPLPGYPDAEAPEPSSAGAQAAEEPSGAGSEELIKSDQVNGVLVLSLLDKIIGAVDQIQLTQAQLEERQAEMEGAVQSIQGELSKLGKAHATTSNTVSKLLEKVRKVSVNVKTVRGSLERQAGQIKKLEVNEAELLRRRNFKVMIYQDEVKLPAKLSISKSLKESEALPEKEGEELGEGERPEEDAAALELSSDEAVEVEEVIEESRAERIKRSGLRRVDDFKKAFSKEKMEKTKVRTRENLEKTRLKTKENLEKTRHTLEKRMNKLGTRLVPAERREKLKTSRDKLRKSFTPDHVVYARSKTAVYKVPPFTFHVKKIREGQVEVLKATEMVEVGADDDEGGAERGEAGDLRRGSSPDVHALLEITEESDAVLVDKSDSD
UniProt Q6ZSR9: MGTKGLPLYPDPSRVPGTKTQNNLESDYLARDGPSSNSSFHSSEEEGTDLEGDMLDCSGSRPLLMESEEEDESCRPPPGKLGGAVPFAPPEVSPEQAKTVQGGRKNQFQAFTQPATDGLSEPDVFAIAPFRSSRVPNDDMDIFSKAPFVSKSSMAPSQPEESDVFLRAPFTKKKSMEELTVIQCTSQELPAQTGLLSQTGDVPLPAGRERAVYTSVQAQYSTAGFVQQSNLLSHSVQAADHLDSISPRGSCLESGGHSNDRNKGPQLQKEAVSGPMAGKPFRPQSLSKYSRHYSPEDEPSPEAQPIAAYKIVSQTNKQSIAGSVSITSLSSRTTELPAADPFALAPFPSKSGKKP
UniProt Q7Z6Z7, whole entry, looked up: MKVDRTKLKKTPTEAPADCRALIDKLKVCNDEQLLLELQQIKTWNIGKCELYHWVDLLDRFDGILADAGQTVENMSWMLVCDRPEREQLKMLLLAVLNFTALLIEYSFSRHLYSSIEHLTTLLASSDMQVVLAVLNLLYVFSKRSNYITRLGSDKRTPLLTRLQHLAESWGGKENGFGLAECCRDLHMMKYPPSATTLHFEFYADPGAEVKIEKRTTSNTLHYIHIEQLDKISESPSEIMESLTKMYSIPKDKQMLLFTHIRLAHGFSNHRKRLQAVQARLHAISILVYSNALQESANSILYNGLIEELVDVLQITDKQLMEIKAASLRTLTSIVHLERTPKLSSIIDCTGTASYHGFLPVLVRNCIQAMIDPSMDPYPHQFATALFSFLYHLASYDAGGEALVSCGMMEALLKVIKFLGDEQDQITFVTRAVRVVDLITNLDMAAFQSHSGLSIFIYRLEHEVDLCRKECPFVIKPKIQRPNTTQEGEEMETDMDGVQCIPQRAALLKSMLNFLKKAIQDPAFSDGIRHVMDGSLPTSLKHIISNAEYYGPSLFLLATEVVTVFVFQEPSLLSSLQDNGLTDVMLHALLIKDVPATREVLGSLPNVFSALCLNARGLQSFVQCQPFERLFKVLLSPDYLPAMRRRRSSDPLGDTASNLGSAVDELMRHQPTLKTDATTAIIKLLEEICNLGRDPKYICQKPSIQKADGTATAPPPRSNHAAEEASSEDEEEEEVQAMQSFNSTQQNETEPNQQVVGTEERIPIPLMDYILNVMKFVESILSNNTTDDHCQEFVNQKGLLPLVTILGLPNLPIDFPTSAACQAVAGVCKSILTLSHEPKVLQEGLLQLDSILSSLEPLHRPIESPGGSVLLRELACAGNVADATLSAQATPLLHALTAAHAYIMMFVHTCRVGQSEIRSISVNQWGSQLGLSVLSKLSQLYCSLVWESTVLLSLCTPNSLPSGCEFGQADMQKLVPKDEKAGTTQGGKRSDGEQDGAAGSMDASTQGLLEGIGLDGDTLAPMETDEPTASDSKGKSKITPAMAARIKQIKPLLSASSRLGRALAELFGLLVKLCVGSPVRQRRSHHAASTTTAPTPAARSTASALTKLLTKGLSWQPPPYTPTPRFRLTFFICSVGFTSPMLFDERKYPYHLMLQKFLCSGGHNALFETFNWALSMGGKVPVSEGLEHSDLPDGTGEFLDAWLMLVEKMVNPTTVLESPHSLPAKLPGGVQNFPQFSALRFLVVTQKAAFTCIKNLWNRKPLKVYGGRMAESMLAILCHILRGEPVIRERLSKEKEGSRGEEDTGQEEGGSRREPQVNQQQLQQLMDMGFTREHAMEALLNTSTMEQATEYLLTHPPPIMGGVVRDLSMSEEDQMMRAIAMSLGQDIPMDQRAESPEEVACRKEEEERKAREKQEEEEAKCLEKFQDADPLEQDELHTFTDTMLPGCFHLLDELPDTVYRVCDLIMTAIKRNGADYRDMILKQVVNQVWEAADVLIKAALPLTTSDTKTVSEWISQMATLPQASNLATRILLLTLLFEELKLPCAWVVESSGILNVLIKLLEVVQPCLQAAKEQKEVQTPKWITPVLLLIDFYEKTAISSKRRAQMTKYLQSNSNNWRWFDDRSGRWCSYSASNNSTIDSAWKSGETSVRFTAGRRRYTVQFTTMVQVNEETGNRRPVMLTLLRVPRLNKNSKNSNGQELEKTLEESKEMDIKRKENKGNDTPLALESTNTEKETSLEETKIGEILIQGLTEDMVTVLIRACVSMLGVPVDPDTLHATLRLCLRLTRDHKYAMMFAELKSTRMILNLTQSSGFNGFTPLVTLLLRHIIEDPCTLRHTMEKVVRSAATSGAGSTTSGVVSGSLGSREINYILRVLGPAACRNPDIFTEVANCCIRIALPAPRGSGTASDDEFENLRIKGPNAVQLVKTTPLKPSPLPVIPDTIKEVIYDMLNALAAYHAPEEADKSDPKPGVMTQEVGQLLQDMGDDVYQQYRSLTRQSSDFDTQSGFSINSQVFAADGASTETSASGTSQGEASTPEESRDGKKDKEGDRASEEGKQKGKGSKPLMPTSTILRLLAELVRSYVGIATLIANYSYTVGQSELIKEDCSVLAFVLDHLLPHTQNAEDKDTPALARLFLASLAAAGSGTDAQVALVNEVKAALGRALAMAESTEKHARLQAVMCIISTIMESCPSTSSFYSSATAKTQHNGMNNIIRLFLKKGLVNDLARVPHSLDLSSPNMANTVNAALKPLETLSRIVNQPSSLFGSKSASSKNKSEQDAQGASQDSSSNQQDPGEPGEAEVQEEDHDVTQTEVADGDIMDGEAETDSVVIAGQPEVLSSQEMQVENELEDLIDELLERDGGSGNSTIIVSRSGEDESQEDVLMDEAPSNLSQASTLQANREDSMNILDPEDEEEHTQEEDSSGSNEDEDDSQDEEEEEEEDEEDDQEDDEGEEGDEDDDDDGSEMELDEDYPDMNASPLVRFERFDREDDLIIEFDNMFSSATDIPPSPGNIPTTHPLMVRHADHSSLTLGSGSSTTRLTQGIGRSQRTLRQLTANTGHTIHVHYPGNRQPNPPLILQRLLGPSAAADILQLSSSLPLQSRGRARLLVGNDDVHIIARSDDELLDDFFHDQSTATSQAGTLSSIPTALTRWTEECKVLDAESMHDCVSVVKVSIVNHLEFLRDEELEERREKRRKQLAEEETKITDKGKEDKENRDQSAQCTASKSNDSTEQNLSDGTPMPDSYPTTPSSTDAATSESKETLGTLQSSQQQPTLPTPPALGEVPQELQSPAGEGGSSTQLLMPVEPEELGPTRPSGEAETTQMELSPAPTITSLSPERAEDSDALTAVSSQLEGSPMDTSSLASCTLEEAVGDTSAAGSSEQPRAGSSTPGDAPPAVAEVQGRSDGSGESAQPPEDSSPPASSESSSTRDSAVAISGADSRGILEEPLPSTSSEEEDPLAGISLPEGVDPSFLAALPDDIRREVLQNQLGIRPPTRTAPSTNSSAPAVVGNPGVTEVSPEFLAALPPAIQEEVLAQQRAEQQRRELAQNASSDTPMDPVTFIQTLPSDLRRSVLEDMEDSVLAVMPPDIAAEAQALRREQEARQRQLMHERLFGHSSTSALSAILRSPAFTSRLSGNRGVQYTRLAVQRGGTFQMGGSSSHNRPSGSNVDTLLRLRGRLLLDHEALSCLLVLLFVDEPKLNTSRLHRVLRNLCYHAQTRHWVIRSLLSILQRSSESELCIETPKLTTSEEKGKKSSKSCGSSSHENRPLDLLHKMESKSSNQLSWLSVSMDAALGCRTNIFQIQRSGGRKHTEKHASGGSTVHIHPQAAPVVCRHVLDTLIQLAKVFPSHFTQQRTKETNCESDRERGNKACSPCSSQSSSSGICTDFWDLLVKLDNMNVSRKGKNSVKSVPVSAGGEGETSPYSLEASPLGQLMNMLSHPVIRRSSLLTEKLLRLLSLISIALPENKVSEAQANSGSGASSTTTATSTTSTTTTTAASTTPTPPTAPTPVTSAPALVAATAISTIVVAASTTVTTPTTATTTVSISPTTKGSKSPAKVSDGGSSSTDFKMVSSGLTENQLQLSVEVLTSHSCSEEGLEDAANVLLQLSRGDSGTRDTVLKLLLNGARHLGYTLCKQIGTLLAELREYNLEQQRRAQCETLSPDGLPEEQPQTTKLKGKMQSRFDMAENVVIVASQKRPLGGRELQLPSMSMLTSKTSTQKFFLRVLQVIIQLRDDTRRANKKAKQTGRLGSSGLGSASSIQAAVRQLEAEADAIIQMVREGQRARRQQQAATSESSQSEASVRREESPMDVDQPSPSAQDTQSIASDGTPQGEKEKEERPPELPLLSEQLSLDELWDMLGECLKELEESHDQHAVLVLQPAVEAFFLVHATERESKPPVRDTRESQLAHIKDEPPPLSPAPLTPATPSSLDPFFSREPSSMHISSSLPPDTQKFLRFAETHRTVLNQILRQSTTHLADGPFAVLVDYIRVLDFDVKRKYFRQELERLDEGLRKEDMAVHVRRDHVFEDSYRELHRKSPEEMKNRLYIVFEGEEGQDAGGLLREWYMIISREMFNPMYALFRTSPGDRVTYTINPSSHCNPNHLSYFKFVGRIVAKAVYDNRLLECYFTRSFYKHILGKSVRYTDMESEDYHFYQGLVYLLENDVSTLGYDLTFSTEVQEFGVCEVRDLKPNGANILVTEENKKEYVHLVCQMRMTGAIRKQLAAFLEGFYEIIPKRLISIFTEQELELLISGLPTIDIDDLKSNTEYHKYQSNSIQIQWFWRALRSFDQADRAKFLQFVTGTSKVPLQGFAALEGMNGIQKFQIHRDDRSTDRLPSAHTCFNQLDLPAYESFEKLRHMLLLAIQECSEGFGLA

Compound: CC[C@@H](C)Nc1cc(C(=O)N[C@H]2C[C@H]3CC[C@@H](C2)N3c2ccc(C(=O)C3CC3)cn2)c(C)cc1C(N)=O [XL888]
Assay: phosphopeptide melting temperature shift (XL888 minus DMSO); higher = stabilised by drug treatment
Conditions: 100 µM; treatment time 2 h; layout: intact cells; SK-Mel 28
Description: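 Phospho-TPP in intact SK-Mel 28 cells treated with 100 uM XL888 or DMSO for 2 h, heated at 10 temperatures (37-67 C) for 3 min, soluble fraction TMT10plex-labelled and TiO2 phospho-enriched. Melting curves were fitted per phosphopeptide; the value is the melting point difference (drug minus vehicle) in each of two biological replicates.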

Row | Target | phosphopeptide melting temperature shift
1 | UniProt Q6ICG6-3_phosphosite_290 (phosphosite position: 290) | 1.52 ± 0.81 °C
2 | UniProt Q6IN85-2_phosphosite_117 (phosphosite position: 117) | 0.477 °C
3 | UniProt Q6NYC8_phosphosite_432 (phosphosite position: 432) | -0.653 ± 0.41 °C
4 | UniProt Q6NZI2_phosphosite_202 (phosphosite position: 202) | 1.71 ± 1.6 °C
5 | UniProt Q6NZI2_phosphosite_203 (phosphosite position: 203) | 1.71 ± 1.6 °C
6 | UniProt Q6NZI2_phosphosite_366 (phosphosite position: 366) | 0.435 °C
7 | UniProt Q6NZI2_phosphosite_376 (phosphosite position: 376) | 2.34 °C
8 | UniProt Q6P1L5-2_phosphosite_136 (phosphosite position: 136) | -1.47 °C
9 | UniProt Q6P158-3_phosphosite_25 (phosphosite position: 25) | -0.574 °C
10 | UniProt Q6PD74-2_phosphosite_201 (phosphosite position: 201) | 0.435 ± 2.5 °C
11 | UniProt Q6PD74-2_phosphosite_202 (phosphosite position: 202) | 0.435 ± 2.5 °C
12 | UniProt Q6PFW1-7_phosphosite_1085 (phosphosite position: 1085) | 0.667 ± 0.53 °C
13 | UniProt Q6UUV7-3_phosphosite_443 (phosphosite position: 443) | 1.52 ± 2.4 °C
14 | UniProt Q6UUV9-3_phosphosite_64 (phosphosite position: 64) | -0.29 °C
15 | UniProt Q6VMQ6-2_phosphosite_113 (phosphosite position: 113) | 0.905 °C
16 | UniProt Q6VMQ6-2_phosphosite_556 (phosphosite position: 556) | 1.12 °C

Quoted at random: two entries already listed.
Row | Target | phosphopeptide melting temperature shift
13 | UniProt Q6UUV7-3_phosphosite_443 (phosphosite position: 443) | 1.52 ± 2.4 °C
7 | UniProt Q6NZI2_phosphosite_376 (phosphosite position: 376) | 2.34 °C

The list goes on.

Row | Target | phosphopeptide melting temperature shift
17 | UniProt Q6XQN6-3_phosphosite_524 (phosphosite position: 524) | -0.795 °C
18 | UniProt Q6ZSR9_phosphosite_93 (phosphosite position: 93) | -0.432 ± 0.13 °C
19 | UniProt Q6ZSZ5-2_phosphosite_966 (phosphosite position: 966) | 0.273 °C
20 | UniProt Q7Z3E5-2_phosphosite_582 (phosphosite position: 582) | 1.65 ± 0.38 °C
21 | UniProt Q7Z3U7-3_phosphosite_89 (phosphosite position: 89) | 0.819 ± 0.38 °C
22 | UniProt Q7Z6E9-2_phosphosite_950 (phosphosite position: 950) | 0.273 °C
23 | UniProt Q7Z6E9-2_phosphosite_1145 (phosphosite position: 1145) | 1.18 ± 1.1 °C
24 | UniProt Q7Z6Z7-2_phosphosite_3646 (phosphosite position: 3646) | 5.15 °C
25 | UniProt Q7Z6Z7-2_phosphosite_3800 (phosphosite position: 3800) | 0.972 °C
26 | UniProt Q7Z6Z7-2_phosphosite_3903 (phosphosite position: 3903) | 0.221 ± 0.34 °C
27 | UniProt Q7Z6Z7-2_phosphosite_3908 (phosphosite position: 3908) | 0.526 ± 0.57 °C
28 | UniProt Q7Z460-2_phosphosite_600 (phosphosite position: 600) | 1.33 °C
29 | UniProt Q7Z460-2_phosphosite_646 (phosphosite position: 646) | -2.09 °C
30 | UniProt Q08AD1-2_phosphosite_437 (phosphosite position: 437) | -0.737 ± 0.44 °C
31 | UniProt Q8IVL1-5_phosphosite_184 (phosphosite position: 184) | -0.788 °C
